Measurements as given in publication PMC13466322.
Results are given in words; binding and its absence hold for the method and conditions named. Binding seen in cells or lysates may run through a third protein. Some binding calls cover weakened binding; strength is not graded here.

Chains of the proteins cited; added tags and fusions are not shown. Lines headed by an entry give the natural chain unless they say otherwise; changes in a name come on top. Residues count along the entry.
UniProt Q6UXG8, residues 35-535: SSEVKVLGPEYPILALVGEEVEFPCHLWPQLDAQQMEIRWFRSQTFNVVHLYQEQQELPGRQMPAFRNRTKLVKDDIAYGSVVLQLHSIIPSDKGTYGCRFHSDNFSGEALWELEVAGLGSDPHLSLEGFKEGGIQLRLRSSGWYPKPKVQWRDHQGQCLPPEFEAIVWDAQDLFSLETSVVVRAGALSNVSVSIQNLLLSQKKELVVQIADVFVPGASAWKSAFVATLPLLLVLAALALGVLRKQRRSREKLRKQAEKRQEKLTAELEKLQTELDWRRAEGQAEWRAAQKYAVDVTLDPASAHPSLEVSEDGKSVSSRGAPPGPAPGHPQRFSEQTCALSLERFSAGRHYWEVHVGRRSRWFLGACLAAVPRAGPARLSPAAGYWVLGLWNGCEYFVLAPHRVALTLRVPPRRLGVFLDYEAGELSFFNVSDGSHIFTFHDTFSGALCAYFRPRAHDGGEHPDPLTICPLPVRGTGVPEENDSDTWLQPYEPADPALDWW

Molecular target: Butyrophilin-like 9 (BTNL9), wild type, FLAG-tagged or AM-tagged (human) (UniProt Q6UXG8)
Assay: co-IP; A549 and NCI-H460 cells co-infected with lentiviruses for AM-tagged and FLAG-tagged BTNL9, harvested at Day 3; 10 µg anti-FLAG antibody crosslinked to Protein A/G Plus Agarose; 500 µg pre-cleared lysate, overnight at 4 °C; AM-tagged BTNL9 detected by Western blot; IgG immunoprecipitation as negative control

binding: binds
Substance: Butyrophilin-like 9 (BTNL9), wild type, FLAG-tagged or AM-tagged (from UniProt Q6UXG8-1 35-535)
